The target of assay [1] is T1, NTR1 (Homo sapiens (Human), UniProt P30989). Description: Radioligand binding assay NTR1 (example part I). The following applies: 0.05 nM 125I-(Tyr3-neurotensin), 60 min at 4° C.
Assay [2] deals with T1, NTR1. The assay is described as follows: Functional Ca2+ mobilisation assay (example part I). The class given is cell-based.

Chains of the proteins cited; added tags and fusions are not shown.
UniProt P30989, whole entry: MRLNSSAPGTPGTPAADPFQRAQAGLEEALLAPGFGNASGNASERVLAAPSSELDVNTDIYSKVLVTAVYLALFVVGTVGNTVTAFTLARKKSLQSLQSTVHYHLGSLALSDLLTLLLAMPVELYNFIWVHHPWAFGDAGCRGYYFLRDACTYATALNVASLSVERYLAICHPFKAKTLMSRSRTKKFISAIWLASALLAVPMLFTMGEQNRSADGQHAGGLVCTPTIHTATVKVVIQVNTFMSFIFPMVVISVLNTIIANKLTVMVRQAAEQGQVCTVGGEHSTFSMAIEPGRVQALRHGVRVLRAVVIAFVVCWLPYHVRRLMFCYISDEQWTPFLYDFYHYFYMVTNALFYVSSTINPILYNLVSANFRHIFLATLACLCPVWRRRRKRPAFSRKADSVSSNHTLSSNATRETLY

SMILES strings stand for the structures. The structures given here were assigned with low confidence; some may be wrong.

For the molecule `COc1cccc(OC)c1-c1cc(C(=O)NC2(C(=O)O)C3CC4CC(C3)CC2C4)nn1-c1ccc(C(=O)N(C)CCCN(C)CCCN(C)C(=O)CCC(=O)NCCCOCCOCCOCCCNC(=O)CCCC[C@@H]2SC[C@@H]3NC(=O)N[C@@H]32)cc1C(C)C` (stereo partly drawn), the IC50 turned out to be 0.0012 µM at NTR1 [1] and 0.01 µM on NTR1 [2] (read-out: Antagonistic Effect IC50, antagonist assay, 30 min pre-incubation, EC80-concentration of agonist). The EC50 on NTR1 [2] (read-out: Agonistic Effect EC50, agonist assay, * bell-shaped curves, EC50 from ascending part of the curve) is more than 50 µM.

Values taken from patent US10799605B2 (3B PHARMACEUTICALS GMBH, priority 2014, dated 2020).
